Our source for the crude mass and crude yield values is patent US11617796B2 (CAREGEN CO., LTD., priority 2016, dated 2023).

A short description of this series: general procedure: Fmoc solid-phase peptide synthesis; CTL resin; Bop/HoBt/DIEA. To be noted: whole synthesis.

For “H-RQTRVQRCHC-OH (cysteine pairing not given here)”, the crude mass is on record as 0.65 g. This substance returned a crude yield (scale of the general procedure 700 mg resin) of 92.6%.
